PubChem BioAssay AID1508588, Peter MacCallum Cancer Centre | 2020
This is one part, drawn at random, of about 18,000 reagents. 790 of them (4.4%) were called active. 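Calls rest on a combination of fold-change classes in drug and vehicle arms, not all shown here.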 Entries without a mark were called inactive. Reagents against one gene are numbered here. No sequences are given here.

Assay: 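Genome-wide search for knock-downs that heighten vemurafenib action in melanoma cells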 (primary screen)
System: human WM266.4 melanoma cells (BRAF V600 mutant)
Knock-down reagent: siRNA pool against human genes, 40 nM
Time to read-out: 96 h from transfection to read-out
Treatment: vemurafenib 300 nM (about IC25), added 48 h after transfection, for 48 h; comparison arm got DMSO vehicle only
Measured: 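Cell gain (DAPI nuclei at end minus before drug, mean of two replicates) and medium lactate by absorbance per cell, both as ratio to non-targeting siRNA, also grouped into fold-change classes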
Reading the numbers: cell gain with vemurafenib: higher = more cell gain than with non-targeting siRNA; lactate per cell with vemurafenib: higher = more lactate made per cell
Hit rule: 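a knock-down counts as enhancing when its fold-change classes with vehicle and with vemurafenib, taken together, show a stronger drug effect on cell gain or lactate per cell; exact class pairs not stated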
Meaning of the calls: active = enhances vemurafenib effect; inactive = no enhancement seen

Knock-down of TARBP1 (GeneID 6894) came out at: cell gain with vemurafenib 1.07; lactate per cell with vemurafenib 0.7.
DMAC1 (GeneID 90871) scored cell gain with vemurafenib 0.27; lactate per cell with vemurafenib 1.9.
Silencing of PRAMEF3 (retired record) (GeneID 401940) resulted in: cell gain with vemurafenib 0.94; lactate per cell with vemurafenib 0.84.
With knock-down of MIS18BP1 (GeneID 55320), the screen gave cell gain with vemurafenib 0.33; lactate per cell with vemurafenib 1.29.
With knock-down of DNHD1 (GeneID 144132) #1, the screen gave cell gain with vemurafenib 0.85; lactate per cell with vemurafenib 1.16.
Depletion of DNHD1 (GeneID 144132) #2 resulted in: cell gain with vemurafenib 0.66; lactate per cell with vemurafenib 0.87.
Against PARP4 (GeneID 143) the deposit lists cell gain with vemurafenib 0.8; lactate per cell with vemurafenib 0.86.
Depletion of OGFOD1 (GeneID 55239) resulted in: cell gain with vemurafenib 0.73; lactate per cell with vemurafenib 0.94.
With knock-down of TBC1D4 (GeneID 9882) the results were cell gain with vemurafenib 0.77; lactate per cell with vemurafenib 0.94.
Against TMEM257 (retired record) (GeneID 9142), the values are cell gain with vemurafenib 0.27; lactate per cell with vemurafenib 2.53.
ZCCHC7 (GeneID 84186) gave cell gain with vemurafenib 0.21; lactate per cell with vemurafenib 2.33.
Against PER3 (GeneID 8863), the values are cell gain with vemurafenib 1.14; lactate per cell with vemurafenib 0.62.
Knock-down of CGAS (GeneID 115004) came out at: cell gain with vemurafenib 0.54 (active); lactate per cell with vemurafenib 0.32.
ZNF451 (GeneID 26036) scored cell gain with vemurafenib 0.46; lactate per cell with vemurafenib 1.93.
DENND4C (GeneID 55667) showed cell gain with vemurafenib 0.75; lactate per cell with vemurafenib 0.82.
Knock-down of DNAJA4 (GeneID 55466) resulted in: cell gain with vemurafenib 0.77; lactate per cell with vemurafenib 0.94.

Hits, among the entries above:
CGAS (GeneID 115004) → cell gain with vemurafenib = 0.54 (active); lactate per cell with vemurafenib = 0.32

Next entries follow.
ARHGAP1 (GeneID 392) scored cell gain with vemurafenib 0.42; lactate per cell with vemurafenib 0.74.
Depletion of RAB13 (GeneID 5872) came out at: cell gain with vemurafenib 0.32; lactate per cell with vemurafenib 1.12.
Silencing of AQP2 (GeneID 359) gave: cell gain with vemurafenib 0.15; lactate per cell with vemurafenib 2.52.
Against WDR7 (GeneID 23335), the entry reads cell gain with vemurafenib 0.93; lactate per cell with vemurafenib 0.93.
Knock-down of KLK13 (GeneID 26085) came out at: cell gain with vemurafenib 1.33; lactate per cell with vemurafenib 0.52.
With knock-down of TUBAL3 (GeneID 79861) the results were cell gain with vemurafenib 1.04; lactate per cell with vemurafenib 0.77.
With knock-down of LRRCC1 (GeneID 85444), the record shows cell gain with vemurafenib 0.46; lactate per cell with vemurafenib 1.2.
Against LRRC8A (GeneID 56262) the deposit lists cell gain with vemurafenib 0.38; lactate per cell with vemurafenib 0.98.
For PTCHD1 (GeneID 139411) the deposit lists cell gain with vemurafenib 0.23; lactate per cell with vemurafenib 0.94.
With knock-down of PTMA (GeneID 5757), the record shows cell gain with vemurafenib 0.53; lactate per cell with vemurafenib 1.19.
HDAC2 (GeneID 3066) scored cell gain with vemurafenib 0.37; lactate per cell with vemurafenib 0.67.
